Columns and labels:
[1] = Relative output and lasing wavelength maximum, pumped at 308 nm by xenon-chloride excimer laser; settings: 308 nm XeCl excimer pumped
[2] = Flashlamp-pumped lasing and usable lifetime

## c1ccc2c(c1)Cc1cc(-c3ccc4c(c3)Cc3ccccc3-4)ccc1-2 [2,2'-bifluorene]
[1]; Table II, dioxane/methanol
  Lasing Wavelength Maximum: 375 nm
[2]; dimethylformamide
  Lasing wavelength, flashlamp pumped: 395 nm
[2]; ethanol
  Lasing wavelength, flashlamp pumped: 358 nm

## c1ccc2c(c1)oc1cc(-c3ccc4c(c3)oc3ccccc34)ccc12 [3,3'-bi(dibenzofuran)]
[1]; Table III, dioxane
  Lasing Wavelength Maximum: ~375 nm
[1]; dioxane
  Output energy greater than the known laser dye BBQ: ~70%

## CCCC1(CCC)c2ccccc2-c2ccc(-c3ccc4c(c3)C(CCC)(CCC)c3ccccc3-4)cc21 [9,9,9',9'-tetrapropyl-2,2'-bifluorene]
[1]; Table III, dioxane
  Lasing Wavelength Maximum: 383 nm
[1]; Table III, dioxane, listed as 9,9,9'9'-tetrapropyl-2,2'-bifluorene
  Lasing Wavelength Maximum: about 383 nm
[1]; dioxane
  Output energy greater than the known laser dye BBQ: about 27%
[2]; ethanol/DMF
  Lasing wavelength peak, flashlamp pumped: 382 nm
[2]; flashlamp pumped, ethanol/DMF
  Greater usable lifetime than commercial dye LD-390: 45%

## CC(C)(C)c1ccc(-c2nnc(-c3ccc(-c4ccccc4)cc3)o2)cc1 [Butyl-PBD, reference compound]
[1]; Table II, ethanol/toluene
  Lasing Wavelength Maximum: 370 nm

## c1ccc(-c2ccc(-c3ccccc3)cc2)cc1 [p-terphenyl, reference compound]
[1]; Table II, dioxane
  Lasing Wavelength Maximum: 335 nm

Source: patent US5037578A, “O,O'-bridged oligophenylene laser dyes and dyestuff lasers and method of lasing therewith” (Exciton Chemical Company, priority 1990, dated 1991)
